Among all 340,000 compounds or so, about 170 (0.05%) were called active. Inconclusive means that the source gave no clear call. Such entries were picked first, then a sample of the others. Calls come from the whole dose curve; as a rule, active = well fitted inhibition curve with a large enough effect in the signal ratio, with a control signal flat (not every such curve was filed as active); inconclusive = small, poorly fitted or top-dose-only effect, or effect the other way, or a change in a side signal; inactive = flat fitted curve, though single readings scatter; the % refers to the signal ratio. A potency beside an inconclusive call is a rough fit, not a confirmed value.
Test: qHTS Assay to Find Inhibitors of Chronic Active B-Cell Receptor Signaling;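 for activity change, negative = inhibition: plate controls were basal doxycycline-induced cells for no effect and cells given 10 µM MG132 for full effect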
Settings: ABC-DLBCL IkBa-CBG/CBR reporter, luminescence ratio (green luciferase fused to IkBa over red control in TMD8 lymphoma cells), 4 h; activity change, negative = inhibition: at 46.1 µM (top of the series)
How it was run: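 TMD8 human ABC-DLBCL cells with doxycycline-inducible IκBα–green luciferase fusion and unfused red luciferase, in 0.5% FBS medium; compounds up to 46 uM, 4 h at 37C. Green/red luminescence ratio, filter-overlap corrected, fitted to concentration-response curves.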
Potency is the fitted concentration of half-maximal effect.

| Structure (SMILES) | activity change, negative = inhibition | Potency |
| --- | --- | --- |
| N#C/C(=C\c1cccnc1)c1nc2c(s1)CCCC2 | inconclusive: 1.96% | – |
| Cc1ccc(C(C)C)c(OCC(=O)Nc2ccccc2N2CCN(C)CC2)c1 | inconclusive: -25.3% | – |
| Cc1cc(C(=O)N/N=C/C=C/c2ccccc2)c(C)o1 | inconclusive: 221% | – |
| CCOc1ccc(C(=O)NCC(=O)NCC2CCCCC2)cc1OCC | inactive: 3.4% | – |
| CN1CCC(N(C)C(=O)c2ccccc2Nc2ccc(SC(F)F)cc2)CC1 | inconclusive: 4.34% | – |
| CCCNC(=O)COc1ccc2c(=O)c(Oc3ccccc3F)coc2c1 | inconclusive: 1.5% | – |
| Cc1ccccc1NC(=O)c1ccc(Cn2cc([N+](=O)[O-])cn2)o1 | – | inconclusive: 31.6 µM [falling, single point] |
| CCc1nc2ccccc2n1CC(=O)N1CCN(S(=O)(=O)c2cccc(C(F)(F)F)c2)CC1 | inactive: -5.27% | – |
| COC(=O)c1nnn(CC(=O)Nc2cc(Cl)ccc2C)c1C(=O)OC | – | inconclusive: 29.1 µM [falling, single point] |
| O=c1oc2ccccc2nc1/C=C(O)/C=C/c1ccc(F)cc1 | – | inconclusive: 20.6 µM [falling, partial curve] |
| CC1=C(C(=O)OCc2ccccc2)C(c2ccccc2Cl)NC(=O)N1C (configuration not stated) | inconclusive: -1.68% | – |
| O=C(Nc1cccc(Cl)c1)OCc1cnc(Cl)s1 | – | inconclusive: 0.58 µM [rising, full curve, poor fit] |
| CCc1cc2cc3c(cc2nc1SCC(=O)N1CCN(C(=O)c2ccco2)CC1)OCO3 | inconclusive: -8.35% | – |
| Cc1cccc(C)c1OCc1cc(C(=O)N2CCN(c3ccc(F)cc3)CC2)no1 | inconclusive: 1.76% | – |
| O=C(Cn1c(=O)cnc2ccccc21)N1CCN(S(=O)(=O)c2ccc(F)cc2)CC1 | inconclusive: 11% | – |
| CC1(C)Cc2c(C#N)c(SCc3ccccc3)nc(N3CCOCC3)c2CO1 | – | inconclusive: 11.2 µM [falling, partial curve, poor fit] |
| COc1ccccc1N1CCN(C(=O)c2cc(=O)c3cc(C)cc(C)c3o2)CC1 | – | inconclusive: 0.501 µM [falling, full curve, poor fit] |
| O=C(CCCN1C(=O)c2ccccc2C1=O)NCc1ccco1 | – | inconclusive: 5.17 µM [rising, partial curve] |
| Cc1cc2c3c([nH]c2cc1S(=O)(=O)N1CCC2(CC1)OCCO2)CC(C)(C)CC3=O | – | inconclusive: 14.1 µM [falling, single point] |
| Cc1cccc(NC(=S)NNc2ncc(C(F)(F)F)cc2Cl)c1 | inactive: 1.4% | – |
| CN(C)c1ccc(N2C(=O)CC(Sc3ccccc3C(=O)O)C2=O)cc1 (configuration not stated) | inconclusive: -8.45% | – |
| CCN1CCC(=NNC(=O)CC23CC4CC(CC(C4)C2)C3)CC1 | inconclusive: -28.9% | – |
| CC1=C(C(=O)Nc2ccccn2)C(c2ccc(Cl)cc2)NC(=S)N1 (configuration not stated) | – | inconclusive: 1.58 µM [rising, partial curve, poor fit] |
| O=C1[C@@H]2CSCN2C(=O)CN1CCc1cccc(F)c1 | inconclusive: 7.6% | – |
| CCc1ccc([C@@H]2CC=C(C(=O)O)[C@H](c3ccc(C(C)(C)C)cc3)N2S(=O)(=O)c2ccc(C)cc2)cc1 | inactive: -5.03% | – |
| O=C(COc1ccc(-c2ccccc2)cc1)Nc1cccnc1 | inconclusive: -4.3% | – |

No new results follow: an excerpt of the list.

| Structure (SMILES) | activity change, negative = inhibition | Potency |
| --- | --- | --- |
| N#C/C(=C\c1cccnc1)c1nc2c(s1)CCCC2 | inconclusive: 1.96% | – |
| Cc1ccc(C(C)C)c(OCC(=O)Nc2ccccc2N2CCN(C)CC2)c1 | inconclusive: -25.3% | – |
| Cc1cc(C(=O)N/N=C/C=C/c2ccccc2)c(C)o1 | inconclusive: 221% | – |

The list continues.

| Structure (SMILES) | activity change, negative = inhibition | Potency |
| --- | --- | --- |
| OC(c1nc2ccccc2[nH]1)C(O)c1nc2ccccc2[nH]1 (configuration not stated) | inactive: 2.01% | – |
| Cc1cc(C)nc(Nc2n[nH]c(-c3ccccc3Cl)n2)n1 | inconclusive: 2.05% | – |
| Cn1ncc(Cl)c1C(=O)Nc1cccc(Cl)c1 | inactive: -5.71% | – |
| CCN1CCN(c2ncnc3c2c(-c2ccccc2)cn3-c2ccc(F)cc2)CC1 | inactive: 5.88% | – |
| COc1ccc(OC)c(/C=N/NC(=O)C(=O)NCc2cccnc2)c1 | inconclusive: 10.6% | – |
| O=C(O)c1ccc(Nc2ccc([N+](=O)[O-])c3nonc23)cc1 | inactive: 12.8% | – |
| CC(C)N(C(=O)[C@H]1C[C@H](CC(=O)NCc2ccco2)C(=O)N2CCc3c([nH]c4ccc(Cl)cc34)[C@]12C)C(C)C | – | inconclusive: 29.1 µM [falling, partial curve, poor fit] |
| COc1ccc(CCn2c(=N)c(C(=O)NCC3CCCO3)cc3c(=O)n4ccccc4nc32)cc1 (configuration not stated) | inactive: -4.12% | – |
| Cc1c(C(=O)N2CCN(Cc3ccccc3)CC2)oc2c1C(=O)CCC2 | inactive: -0.193% | – |
| CCNC(=S)N(CCc1ccc(S(N)(=O)=O)cc1)C1CC(=O)N(c2ccccc2)C1=O (configuration not stated) | – | inconclusive: 11.2 µM [falling, partial curve, poor fit] |
| COc1ccc(C2=CC(=O)C[C@H](c3ccc(F)cc3)C2)c(F)c1F | inconclusive: 9.6% | – |
| C(=C\c1ccccc1)/CN1CCN(c2ncnc3c2oc2ccccc23)CC1 | inactive: 4.55% | – |
| CC(C)(C)n1ncc2c(=O)n(CC(=O)N3CCCc4ccccc43)cnc21 | inconclusive: -3.15% | – |
| COC(=O)c1ccc(Nc2cc(C)nc(-c3ccccc3O)n2)cc1 | – | inconclusive: 2.31 µM [falling, partial curve] |
| CN(C)/C=C/C(=O)c1cnc(-c2ccccn2)s1 | – | inconclusive: 35.5 µM [falling, single point] |
| O=C(O)C1CCCCC1C(=O)Nc1cccc(Br)c1 (configuration not stated) | inactive: 3.75% | – |
| CC(=O)NC12CC3CC(C1)CC(C(=O)Nc1nc4c(C)cccc4s1)(C3)C2 | inconclusive: -0.368% | – |
| CC(C)C(=O)c1cc2c(cc1NC(=O)Nc1cccc3ccccc13)OCCO2 | inconclusive: -2.58% | – |
| CCOC(=O)c1cnn(CCOC(=O)c2ccc(OC)cc2)c1NC(=O)c1ccc(OC)cc1 | inconclusive: -1.86% | – |
| O=C(CN1C(=O)CCC1=O)Nc1ccc(Br)cc1 | inconclusive: -0.766% | – |
| C/C(CC(=O)NCc1ccc(Cl)cc1)=N\NC(=O)COc1ccc(C)cc1Br | – | inconclusive: 22.4 µM [falling, single point] |
| COc1cccc(C(=O)O/N=C/c2ccc(Sc3ccc(C)cc3)nc2)c1 | inconclusive: -3.32% | – |
| CCC(=O)Nc1cnc(NC(=O)c2cccc(F)c2)cc1C | – | inconclusive: 29.1 µM [falling, single point] |
| COc1ccc(OCc2cc(C(=O)NCC(C)Oc3cccnc3)no2)c(Cl)c1 (configuration not stated) | – | inconclusive: 12.6 µM [falling, partial curve, poor fit] |
| Cc1nn(Cc2ccccc2)c(C)c1C(=O)OCC(=O)c1cc(C)n(CC(F)(F)F)c1C | – | inconclusive: 29.1 µM [falling, single point] |
| Cc1ccc(S(=O)(=O)N(CC(O)CN2CCOCC2)c2cc(Cl)ccc2Cl)cc1 (configuration not stated) | inactive: 2.86% | – |

| Structure (SMILES) | activity change, negative = inhibition | Potency |
| --- | --- | --- |
| CC(C)NC(=O)N1CCOCCOCCN(C(=O)NC(C)C)CCOCCOCC1 | inconclusive: 8.95% | – |
| CCn1c(COc2ccccc2OC)nc2ccccc21 | inconclusive: 1.54% | – |
| Cc1ccc(-c2nn(C(C)(C)C)c3ncnc(N)c23)cc1 | – | inconclusive: 7.08 µM [falling, partial curve] |
| c1cncc(-c2nc(NCc3ccco3)c3ccccc3n2)c1 | inactive: 11.8% | – |
| Cc1cc(-c2ccccc2)nc(N/N=C/c2ccccc2)n1 | – | inconclusive: 0.112 µM [rising, full curve, poor fit] |
| N#Cc1c(-n2cccc2)cccc1-n1cccc1 | inconclusive: -0.114% | – |
| COc1ccc(C(=O)N/N=C/c2cc(Br)ccc2O)cc1OC | – | inconclusive: 10 µM [falling, partial curve, poor fit] |
| CN(C)S(=O)(=O)c1cccc(NC(=O)COC(=O)c2cn(-c3ccccc3)nc2-c2ccccc2)c1 | inconclusive: 10.9% | – |
| Clc1ccc(Cn2nnc(-c3ccc(CN4CCOCC4)cc3)n2)cc1 | inconclusive: -2.29% | – |
| COc1cc([N+](=O)[O-])cc(/C=N/NC(=O)c2cncc(Br)c2)c1O | – | inconclusive: 14.1 µM [falling, single point] |
| Cc1cc(C)cc(NC(=S)N(Cc2cccc(Br)c2)CC2CCC(C(=O)O)CC2)c1 (configuration not stated) | – | inconclusive: 1.41 µM [falling, partial curve, poor fit] |
| Cc1[nH]c(=O)[nH]c(=O)c1S(=O)(=O)Nc1ccc(Cl)c([N+](=O)[O-])c1 | inconclusive: 4.14% | – |
| Cc1ccc(CN(C)C(=O)CN2C(=O)NC(c3ccccc3)(c3ccccc3)C2=O)c(C)c1 | inconclusive: 5.47% | – |
| CCOc1ccc(CN(C)CC(=O)NCc2ccc(F)cc2)cc1 | inconclusive: 2.92% | – |
| Cc1nnc2ccc(N3CCN(c4ccccn4)CC3)nn12 | inconclusive: -1.84% | – |
| COc1ccc(-c2nnc(COc3ccc4ccccc4c3)o2)cc1OC | inconclusive: -5.87% | – |
| CCCC[C@]12Cc3cc(C#N)ccc3C(O1)c1c(cc(C)n(-c3ccccc3)c1=O)O2 | inactive: 2.24% [at 9.22 µM] | – |
| O=C(CNC(=O)c1sc2ccccc2c1Cl)NCc1cccc(C(F)(F)F)c1 | inconclusive: 3.08% | – |
| COCc1n[nH]c(=S)n1-c1cccc2ccccc12 | inactive: 1.53% | – |
| CC1=C(C(=O)OCC(C)C)[C@]23C(=O)c4ccccc4[C@@]2(O1)OC(N)=C3C#N | inconclusive: 23.4% | – |
| c1ccc(-c2nnc3sc(-c4cc5ccccc5o4)nn23)cc1 | inconclusive: 1.89% | – |
| C#CCN1C(=O)S/C(=C\c2ccc(-c3ccc(C(=O)O)cc3C)o2)C1=O | inconclusive: -4.29% | – |
| COC(=O)c1c(-c2ccc(S(C)(=O)=O)cc2)sc2ccc(OC)cc12 | inconclusive: 0.246% | – |
| CCC(C)(C)NC(=O)C(C(C)C)N(CC1CCCO1)C(=O)CNS(=O)(=O)c1ccccc1 (configuration not stated) | inactive: -1.43% | – |
| CCC(C)(C)NC(=O)C(c1cccn1C)N(C(=O)Cn1nnc2ccccc21)c1ccc(NC(C)=O)cc1 (configuration not stated) | inconclusive: 20.5% | – |

2 entries from above, reformatted.
Cc1ccc(-c2nn(C(C)(C)C)c3ncnc(N)c23)cc1
  Potency: inconclusive: 7.08 µM [falling, partial curve]
CC1=C(C(=O)OCC(C)C)[C@]23C(=O)c4ccccc4[C@@]2(O1)OC(N)=C3C#N
  activity change, negative = inhibition: inconclusive: 23.4%
